Data reported in PubChem BioAssay AID493014 (National Center for Advancing Translational Sciences (NCATS), 2011).
Some of the results follow. The main result of the screen is listed elsewhere. These columns were measured beside it and carry no call. Compounds called inactive in the main read-out are mostly missing here. The note in brackets gives the kind of curve behind each potency; many fits are weak.

Test: qHTS Assay to Find Inhibitors of Chronic Active B-Cell Receptor Signaling
Details: ABC-DLBCL IkBa-CBG/CBR reporter, luminescence ratio (green luciferase fused to IkBa over red control in TMD8 lymphoma cells), 4 h
Summary of the method: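 Cell line TMD8 (human ABC DLBCL), stably expressing tet-inducible CBG68-IkBa fusion and CBR; IMDM/0.5% FBS; cpd up to 46 uM; dox induction, 4 h, 37C/5% CO2; dual luminescence; green/red ratio; MG132 control.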

[1] = measured here: CBR red luminescence, cell number
[2] = measured here: IkBa-CBG green luminescence

CCNC(=O)COc1ccc(-c2ccccc2)cc1
AC50 [1]: 3.66 µM [rising, full curve, poor fit]

CCc1ccc2[nH]c(C(=O)Nc3ccc4c(c3)OCO4)cc2c1
AC50 [1]: 17.8 µM [falling, single point]

Oc1[nH]c(=S)sc1C=C1N=c2ccccc2=N1
AC50 [1]: 17.8 µM [falling, single point]

Cc1cc(NC(=O)CN2C(=O)NC3(CCCCCC3)C2=O)ccc1Br
AC50 [1]: 20.6 µM [falling, single point]

Nc1ncnc2nc(SCc3ccc(Cl)cc3Cl)[nH]c12
AC50 [1]: 16.4 µM [rising, single point]

CCOC(=O)C1CCN(c2cc(=O)n(C3CCCCC3)c(=O)[nH]2)CC1
AC50 [1]: 2.24 µM [rising, partial curve, poor fit]

COC(=O)c1[nH]c2cc(C)ccc2c1NC(=O)CN1CCCc2ccccc21
AC50 [1]: 3.55 µM [rising, single point]

COc1ccccc1NC(=O)Nc1nnc(Cc2ccccc2F)s1
AC50 [1]: 35.5 µM [rising, single point]

CC(C)(C)OC(=O)n1cc(/C=N/NC(=O)c2ccco2)c2ccccc21
AC50 [1]: 35.5 µM [falling, single point]

COc1ccccc1/C=N/NC(=O)CSc1ccc2ccccc2n1
AC50 [1]: 35.5 µM [falling, partial curve, poor fit]

Cc1cccc(NC(=O)C2SC(=Nc3c(C)cccc3C)C(C(=O)N3CCOCC3)=C2N)c1 (stereo unspecified)
AC50 [1]: 10.3 µM [falling, partial curve]

N#C/C(=C1\CCCN1)c1nc(-c2ccccc2)cs1
AC50 [1]: 0.731 µM [rising, partial curve, poor fit]

Cc1ccc(C)c(S(=O)(=O)N2CCN(C(=O)c3n[nH]c(=O)c4ccccc34)CC2)c1
AC50 [1]: 1.3 µM [falling, partial curve, poor fit]

CCn1c(SCC(=O)c2ccc(C)cc2)nnc1-c1ccncc1
AC50 [1]: 7.31 µM [falling, partial curve, poor fit]

Cc1ccc(S(=O)(=O)Cn2cnnn2)cc1
AC50 [1]: 0.501 µM [rising, full curve, poor fit]

CCCCNC(=S)NNC(=O)C1=NN(c2cc(C)ccc2C)C(=O)CC1
AC50 [1]: 35.5 µM [falling, single point]

Cc1ccc2nc(Nc3nc(=O)c4ccccc4n3C)nc(C)c2c1
AC50 [1]: 0.282 µM [falling, full curve]

FC(F)Oc1ccc(-c2csc(NNC3=NCCCCC3)n2)cc1
AC50 [1]: 0.2 µM [rising, full curve, poor fit]

O=C(COC(=O)C12CC3CC(CC(Cl)(C3)C1)C2)Nc1ccccc1
AC50 [1]: 0.116 µM [rising, full curve, poor fit]

Cc1cnc(C(=O)OCC(=O)Nc2ccc(Cl)cn2)cn1
AC50 [1]: 3.66 µM [falling, full curve]

Nc1nc(SCC(=O)Nc2ccc(OC(F)(F)F)cc2)[nH]c(=O)c1NC(=O)c1ccc(Br)o1
AC50 [1]: 25.1 µM [falling, partial curve, poor fit]

CCOC(=O)C1=C(N)n2c(s/c(=C\c3cccs3)c2=O)=C(C(=O)OCC)C1c1cccs1 (stereo unspecified)
AC50 [1]: 14.1 µM [rising, partial curve] | AC50 [2]: 12.6 µM [falling, partial curve, poor fit]

O=C(Cc1cccs1)Nc1cccc(-c2nc3cc4ccccc4cc3[nH]2)c1
AC50 [1]: 0.326 µM [falling, partial curve, poor fit] | AC50 [2]: 23.1 µM [rising, partial curve, poor fit]

O=C(CN1CCN(c2ccc(F)cc2)CC1)c1ccc2c(c1)OCO2
AC50 [1]: 35.5 µM [falling, single point]

CCN(Cc1ccc2c(c1)OCCO2)C(=O)CSc1nc(C)nc2sc(C)c(C)c12
AC50 [1]: 6.51 µM [rising, single point]

COc1ccc(CCN=C(NS(=O)(=O)c2ccc(Cl)cc2)c2ccccc2)cc1
AC50 [1]: 5.62 µM [rising, single point]

Cc1c(CCOC(=O)c2cccc([N+](=O)[O-])c2)sc[n+]1CC(=O)c1ccccc1
AC50 [1]: 5.62 µM [rising, single point]

CC1(C)CC(NC(=S)Nc2ccc([N+](=O)[O-])cc2)CC(C)(C)N1
AC50 [1]: 7.94 µM [falling, partial curve, poor fit]

C(=C\c1ccccc1)/C=N/Nc1nc2ccccc2s1
AC50 [1]: 17.8 µM [falling, partial curve, poor fit]

O=C1C=C(/C=C/C2C=CC=CC2)C[C@@H](c2ccc(Cl)cc2)C1 (stereo partly specified)
AC50 [1]: 9.2 µM [rising, partial curve, poor fit]

CC(=O)NC(c1ccc(Cl)cc1Cl)c1ccc2cccnc2c1O (stereo unspecified)
AC50 [1]: 22.4 µM [falling, single point]

O=C(NNC(=S)Nc1ccc(F)cc1)[C@H]1C[C@@H]1c1ccccc1
AC50 [1]: 0.631 µM [rising, partial curve, poor fit]

Cc1ccc(C)c(C(=O)CN2C(=O)C(=O)N(C3CCCC3)C2=O)c1
AC50 [1]: 9.2 µM [rising, partial curve]

O=C(CNC(=O)c1sc2ccccc2c1Cl)NC1CC1
AC50 [1]: 4.47 µM [falling, full curve]

C[n+]1nc(Nc2ccccc2)sc1-c1ccc(C(=O)O)cc1
AC50 [1]: 14.1 µM [falling, partial curve]

O=C(Nc1ccc(Cl)cc1)Nc1ccc(C(=O)N2CCOCC2)cc1
AC50 [1]: 7.08 µM [falling, full curve, poor fit]

S=C(NCCc1ccccc1)Nc1ccc(Br)cc1
AC50 [1]: 4.11 µM [rising, full curve]

N#Cc1c(-c2ccccc2)nc2n(-c3ccccc3)nc(C(=O)Nc3ccccc3)n2c1=O
AC50 [1]: 10.3 µM [rising, single point]

NC(=O)c1cc([N+](=O)[O-])ccc1NCC1CCCCC1
AC50 [1]: 2.06 µM [rising, full curve, poor fit]

COc1ccccc1N1CCN(C(=O)c2ccc(S(=O)(=O)N3CCCC3)cc2)CC1
AC50 [1]: 7.31 µM [falling, partial curve, poor fit]

C[C@H](CO)N1C[C@H](C)[C@@H](CN(C)C(=O)Nc2ccccc2)Oc2c(NS(=O)(=O)c3cccs3)cccc2C1=O
AC50 [1]: 25.9 µM [rising, single point]

Cc1ccc(/C(N)=N/OC(=O)N2CCOCC2)cc1
AC50 [1]: 3.98 µM [rising, full curve]

CCOC(=O)C1CCN(C(=O)c2cc3cc(C)ccc3[nH]2)CC1
AC50 [1]: 2.51 µM [falling, full curve]

O=C(Nc1ccc(Cl)cc1)Nc1ccon1
AC50 [1]: 0.355 µM [rising, full curve, poor fit]

Nc1ncnc2c1ncn2[C@@H]1O[C@H](CNCc2cccc(C#Cc3ccccc3)c2)[C@@H](O)[C@H]1O
AC50 [1]: 13 µM [rising, partial curve] | AC50 [2]: 9.2 µM [falling, partial curve]

CCOc1ccccc1NC(=O)COn1nnc2ccc(Cl)cc21
AC50 [1]: 35.5 µM [falling, single point]

c1cc2c3c(cccc3c1)NC1(CCC3(CC1)Nc1cccc4cccc(c14)N3)N2
AC50 [1]: 11.2 µM [falling, partial curve]

Cc1nc(-c2ccc(C(F)(F)F)cc2)sc1C(=O)NN
AC50 [1]: 0.447 µM [falling, full curve, poor fit]

CCOC(=O)c1c(C)sc2c1N(C(=O)CCl)c1cc(Cl)ccc1S2
AC50 [1]: 3.55 µM [falling, partial curve]

CCN(C(=O)Cn1c([N+](=O)[O-])cnc1C)c1ccccc1
AC50 [1]: 31.6 µM [rising, single point]

CCCN(CC(=O)Nc1ccccc1OC)C(=O)c1ccc(S(=O)(=O)Nc2ccccc2)cc1
AC50 [1]: 29.1 µM [falling, single point]

CCOc1ccc(CCN2C(=O)c3cccnc3C2=O)cc1OCC
AC50 [1]: 11.2 µM [falling, partial curve]

COc1cc2cc(NC(C)=O)cc(NCc3ccccc3)c2cc1OC
AC50 [2]: 17.8 µM [falling, partial curve, poor fit]

Nc1nc(-c2ccccc2)cc(C(F)(F)F)n1
AC50 [1]: 25.9 µM [falling, partial curve, poor fit]

O=C(Nc1cc(Cl)cc(Cl)c1)c1ccc(F)c(S(=O)(=O)NC2CCCC2)c1
AC50 [1]: 35.5 µM [falling, single point]

O=C(Nc1nccs1)c1cccc(S(=O)(=O)N2CCCC2)c1
AC50 [1]: 1 µM [falling, full curve, poor fit]

Cc1cccc2nc(-c3ccccc3)nc(N3CCC(O)(c4ccc(Cl)cc4)CC3)c12
AC50 [1]: 16.4 µM [falling, partial curve]

COc1ccc2nc(SCC(=O)Nc3ccc4c(c3)CCC4)[nH]c2c1
AC50 [1]: 29.1 µM [falling, single point]

CN(C)S(=O)(=O)Oc1cc(Cl)ccc1C(=O)Nc1ccc(F)cc1F
AC50 [1]: 3.98 µM [rising, partial curve, poor fit]

Cc1cc(C(=O)CN2CCC(C)CC2)c(C)n1-c1ccc(F)cc1
AC50 [1]: 5.8 µM [falling, partial curve, poor fit]

Cn1c(=O)[nH]c(=O)c2[nH]c(N(Cc3ccccc3)Cc3ccccc3)nc21
AC50 [1]: 35.5 µM [falling, single point]

CC(=O)Nc1ccc(S(=O)(=O)NC(C)C(=O)NCCc2ccc(F)cc2)cc1 (stereo unspecified)
AC50 [1]: 1.58 µM [rising, partial curve]

O=C(CCl)Nc1ccccc1C(=O)c1ccccc1
AC50 [1]: 22.4 µM [falling, single point]
